Results taken from the supplement of paper PMC10849652.
Some of the results follow.

By UniProt entry, the sequences of proteins in these tests, tags left out. Where a name states a change or a piece, a line headed by the entry shows the natural chain unless it says otherwise.
UniProt P63279, whole entry, looked up: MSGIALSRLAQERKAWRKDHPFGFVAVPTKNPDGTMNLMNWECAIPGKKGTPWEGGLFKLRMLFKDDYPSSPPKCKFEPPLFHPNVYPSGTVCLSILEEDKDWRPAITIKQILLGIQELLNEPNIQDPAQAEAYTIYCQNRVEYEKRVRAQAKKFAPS
UniProt P04350, whole entry, looked up: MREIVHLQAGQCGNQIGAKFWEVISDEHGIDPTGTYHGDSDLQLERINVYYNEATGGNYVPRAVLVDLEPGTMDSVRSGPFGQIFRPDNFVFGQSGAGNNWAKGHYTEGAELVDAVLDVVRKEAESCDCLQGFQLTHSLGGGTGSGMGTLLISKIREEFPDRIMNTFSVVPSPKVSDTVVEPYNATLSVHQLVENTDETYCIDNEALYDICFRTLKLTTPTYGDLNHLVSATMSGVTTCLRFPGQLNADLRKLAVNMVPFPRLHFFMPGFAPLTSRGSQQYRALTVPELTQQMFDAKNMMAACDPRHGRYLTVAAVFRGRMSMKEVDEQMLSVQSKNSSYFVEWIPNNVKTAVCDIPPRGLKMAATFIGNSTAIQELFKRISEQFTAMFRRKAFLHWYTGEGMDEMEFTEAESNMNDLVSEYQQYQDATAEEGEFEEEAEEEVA
UniProt Q9C0C9: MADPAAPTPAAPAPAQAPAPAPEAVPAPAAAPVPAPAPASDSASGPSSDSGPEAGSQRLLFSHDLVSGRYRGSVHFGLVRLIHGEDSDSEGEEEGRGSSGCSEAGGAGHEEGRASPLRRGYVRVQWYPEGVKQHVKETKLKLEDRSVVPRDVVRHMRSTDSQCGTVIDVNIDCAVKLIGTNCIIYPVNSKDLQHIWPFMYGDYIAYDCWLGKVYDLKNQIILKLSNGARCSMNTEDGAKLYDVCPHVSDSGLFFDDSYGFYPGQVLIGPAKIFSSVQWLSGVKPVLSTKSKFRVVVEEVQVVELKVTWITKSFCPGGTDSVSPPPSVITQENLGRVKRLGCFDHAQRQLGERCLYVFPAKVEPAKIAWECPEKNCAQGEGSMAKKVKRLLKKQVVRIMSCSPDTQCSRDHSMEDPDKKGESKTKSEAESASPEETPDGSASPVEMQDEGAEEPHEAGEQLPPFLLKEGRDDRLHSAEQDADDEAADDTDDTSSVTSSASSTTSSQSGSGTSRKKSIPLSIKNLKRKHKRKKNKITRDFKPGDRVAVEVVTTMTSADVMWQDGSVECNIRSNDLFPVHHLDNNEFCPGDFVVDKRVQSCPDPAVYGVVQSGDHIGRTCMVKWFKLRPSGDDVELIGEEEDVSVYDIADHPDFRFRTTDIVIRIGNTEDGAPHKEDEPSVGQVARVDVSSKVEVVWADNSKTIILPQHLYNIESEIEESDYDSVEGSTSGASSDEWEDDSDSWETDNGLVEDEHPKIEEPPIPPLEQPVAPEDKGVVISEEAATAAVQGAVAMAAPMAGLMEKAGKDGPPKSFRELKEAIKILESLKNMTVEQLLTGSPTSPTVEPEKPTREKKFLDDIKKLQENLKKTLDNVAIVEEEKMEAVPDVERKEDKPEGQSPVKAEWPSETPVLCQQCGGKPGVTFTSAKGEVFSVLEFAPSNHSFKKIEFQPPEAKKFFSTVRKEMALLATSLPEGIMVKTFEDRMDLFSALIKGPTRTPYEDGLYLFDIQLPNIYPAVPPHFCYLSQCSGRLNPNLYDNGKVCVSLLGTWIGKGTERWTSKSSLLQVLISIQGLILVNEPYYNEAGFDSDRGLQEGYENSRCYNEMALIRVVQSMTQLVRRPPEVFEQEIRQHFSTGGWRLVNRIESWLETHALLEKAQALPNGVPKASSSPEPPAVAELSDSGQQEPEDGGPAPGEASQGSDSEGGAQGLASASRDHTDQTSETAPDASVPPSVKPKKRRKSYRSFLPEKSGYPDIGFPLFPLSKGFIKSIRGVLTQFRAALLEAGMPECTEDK
UniProt Q9Y5U2: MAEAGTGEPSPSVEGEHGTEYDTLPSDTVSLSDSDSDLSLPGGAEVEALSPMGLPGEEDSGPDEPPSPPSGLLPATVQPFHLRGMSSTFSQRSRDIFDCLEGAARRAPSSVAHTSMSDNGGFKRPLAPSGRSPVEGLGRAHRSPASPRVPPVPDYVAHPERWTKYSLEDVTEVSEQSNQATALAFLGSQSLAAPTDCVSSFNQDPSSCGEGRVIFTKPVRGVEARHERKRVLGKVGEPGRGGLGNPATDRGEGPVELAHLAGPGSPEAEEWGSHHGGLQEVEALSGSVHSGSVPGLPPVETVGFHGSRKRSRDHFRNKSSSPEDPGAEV
UniProt Q9NPD8: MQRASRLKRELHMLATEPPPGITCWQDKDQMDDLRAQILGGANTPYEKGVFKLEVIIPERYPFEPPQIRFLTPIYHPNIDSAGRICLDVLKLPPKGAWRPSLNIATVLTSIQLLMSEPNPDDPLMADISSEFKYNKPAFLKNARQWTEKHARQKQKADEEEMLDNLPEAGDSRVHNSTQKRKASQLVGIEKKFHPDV
UniProt P62256: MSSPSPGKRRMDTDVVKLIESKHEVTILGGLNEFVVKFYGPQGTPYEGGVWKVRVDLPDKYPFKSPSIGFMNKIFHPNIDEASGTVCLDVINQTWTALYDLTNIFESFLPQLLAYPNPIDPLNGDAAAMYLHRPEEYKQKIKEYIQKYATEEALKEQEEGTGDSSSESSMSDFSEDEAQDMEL
UniProt Q712K3: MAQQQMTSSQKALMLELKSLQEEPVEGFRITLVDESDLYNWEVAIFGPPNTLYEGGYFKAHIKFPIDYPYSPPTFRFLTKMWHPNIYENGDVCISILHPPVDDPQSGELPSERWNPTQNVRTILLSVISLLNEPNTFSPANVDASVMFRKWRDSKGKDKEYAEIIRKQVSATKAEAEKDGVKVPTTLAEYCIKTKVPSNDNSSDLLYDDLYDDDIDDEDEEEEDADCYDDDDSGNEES
UniProt Q9UNY4: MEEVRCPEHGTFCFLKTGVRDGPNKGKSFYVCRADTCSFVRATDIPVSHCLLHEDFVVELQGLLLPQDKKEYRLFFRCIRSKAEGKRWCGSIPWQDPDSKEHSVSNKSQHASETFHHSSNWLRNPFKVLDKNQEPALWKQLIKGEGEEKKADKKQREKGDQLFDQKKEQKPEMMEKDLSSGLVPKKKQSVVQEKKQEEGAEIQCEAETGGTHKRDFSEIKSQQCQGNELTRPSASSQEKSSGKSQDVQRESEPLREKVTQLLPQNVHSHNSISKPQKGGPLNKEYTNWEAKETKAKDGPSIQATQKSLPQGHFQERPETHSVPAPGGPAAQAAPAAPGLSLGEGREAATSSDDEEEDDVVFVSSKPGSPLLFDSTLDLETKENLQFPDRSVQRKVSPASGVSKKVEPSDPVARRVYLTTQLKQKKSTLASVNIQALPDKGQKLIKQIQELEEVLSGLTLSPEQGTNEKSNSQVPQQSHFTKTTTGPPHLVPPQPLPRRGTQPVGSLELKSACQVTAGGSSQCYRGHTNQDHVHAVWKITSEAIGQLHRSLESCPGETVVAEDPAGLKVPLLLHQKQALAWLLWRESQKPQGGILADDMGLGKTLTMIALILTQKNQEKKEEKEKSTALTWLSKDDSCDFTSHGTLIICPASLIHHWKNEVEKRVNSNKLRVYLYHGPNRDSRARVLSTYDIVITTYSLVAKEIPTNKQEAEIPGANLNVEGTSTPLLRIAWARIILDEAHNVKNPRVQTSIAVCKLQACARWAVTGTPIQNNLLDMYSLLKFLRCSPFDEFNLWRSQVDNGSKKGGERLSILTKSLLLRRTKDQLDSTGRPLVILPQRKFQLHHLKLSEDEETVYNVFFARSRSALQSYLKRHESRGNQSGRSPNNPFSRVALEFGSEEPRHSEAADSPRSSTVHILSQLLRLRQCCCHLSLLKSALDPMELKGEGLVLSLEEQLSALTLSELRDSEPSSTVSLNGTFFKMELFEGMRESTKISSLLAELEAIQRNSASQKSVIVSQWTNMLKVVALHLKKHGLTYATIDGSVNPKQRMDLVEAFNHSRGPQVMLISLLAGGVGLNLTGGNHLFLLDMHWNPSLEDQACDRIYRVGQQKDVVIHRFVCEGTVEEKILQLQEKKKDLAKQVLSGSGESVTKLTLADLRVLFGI
UniProt Q96CW5, whole entry, looked up: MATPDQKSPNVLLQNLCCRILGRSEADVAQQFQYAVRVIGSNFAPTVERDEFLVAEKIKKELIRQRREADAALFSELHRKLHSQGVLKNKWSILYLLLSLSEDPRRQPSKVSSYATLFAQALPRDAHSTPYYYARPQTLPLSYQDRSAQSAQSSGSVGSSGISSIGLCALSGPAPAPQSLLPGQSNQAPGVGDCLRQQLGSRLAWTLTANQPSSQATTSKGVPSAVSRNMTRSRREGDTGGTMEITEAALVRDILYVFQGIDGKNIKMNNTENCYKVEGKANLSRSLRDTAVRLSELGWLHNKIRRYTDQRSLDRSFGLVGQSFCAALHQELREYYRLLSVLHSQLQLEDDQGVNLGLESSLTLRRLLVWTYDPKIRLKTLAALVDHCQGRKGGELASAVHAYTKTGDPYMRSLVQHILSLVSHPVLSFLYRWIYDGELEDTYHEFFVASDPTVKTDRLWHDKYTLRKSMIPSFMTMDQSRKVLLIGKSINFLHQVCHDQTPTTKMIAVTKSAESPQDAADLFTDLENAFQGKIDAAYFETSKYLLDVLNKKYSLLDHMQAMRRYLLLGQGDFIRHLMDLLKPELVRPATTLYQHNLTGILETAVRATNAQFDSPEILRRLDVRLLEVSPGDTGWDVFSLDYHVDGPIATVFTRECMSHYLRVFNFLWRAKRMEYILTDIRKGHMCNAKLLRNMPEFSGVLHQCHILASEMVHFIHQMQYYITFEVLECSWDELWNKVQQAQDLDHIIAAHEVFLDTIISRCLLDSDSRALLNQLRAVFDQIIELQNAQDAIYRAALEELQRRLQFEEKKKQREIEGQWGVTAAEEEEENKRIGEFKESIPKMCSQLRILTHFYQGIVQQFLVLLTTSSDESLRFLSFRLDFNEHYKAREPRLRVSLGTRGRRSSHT
UniProt P62253: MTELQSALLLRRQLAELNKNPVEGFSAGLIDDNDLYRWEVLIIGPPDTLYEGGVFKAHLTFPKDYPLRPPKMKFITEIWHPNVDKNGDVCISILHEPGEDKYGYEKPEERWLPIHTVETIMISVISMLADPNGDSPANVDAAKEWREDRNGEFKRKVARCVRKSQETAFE
UniProt Q7Z7E8: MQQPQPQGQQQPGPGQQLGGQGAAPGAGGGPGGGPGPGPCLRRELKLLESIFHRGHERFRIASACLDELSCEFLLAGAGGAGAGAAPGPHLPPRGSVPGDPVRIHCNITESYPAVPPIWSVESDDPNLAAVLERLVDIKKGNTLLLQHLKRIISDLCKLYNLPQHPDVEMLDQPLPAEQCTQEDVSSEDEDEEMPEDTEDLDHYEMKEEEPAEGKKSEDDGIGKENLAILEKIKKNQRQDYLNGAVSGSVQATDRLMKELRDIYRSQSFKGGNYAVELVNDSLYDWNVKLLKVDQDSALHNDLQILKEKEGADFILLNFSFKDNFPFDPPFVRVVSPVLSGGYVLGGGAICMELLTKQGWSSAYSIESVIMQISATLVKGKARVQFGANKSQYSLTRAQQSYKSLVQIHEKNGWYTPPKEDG
UniProt Q99757: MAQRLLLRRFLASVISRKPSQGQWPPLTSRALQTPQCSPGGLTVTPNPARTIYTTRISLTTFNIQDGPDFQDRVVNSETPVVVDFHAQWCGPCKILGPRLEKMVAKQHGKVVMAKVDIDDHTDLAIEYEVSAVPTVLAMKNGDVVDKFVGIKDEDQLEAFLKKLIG
UniProt Q99816: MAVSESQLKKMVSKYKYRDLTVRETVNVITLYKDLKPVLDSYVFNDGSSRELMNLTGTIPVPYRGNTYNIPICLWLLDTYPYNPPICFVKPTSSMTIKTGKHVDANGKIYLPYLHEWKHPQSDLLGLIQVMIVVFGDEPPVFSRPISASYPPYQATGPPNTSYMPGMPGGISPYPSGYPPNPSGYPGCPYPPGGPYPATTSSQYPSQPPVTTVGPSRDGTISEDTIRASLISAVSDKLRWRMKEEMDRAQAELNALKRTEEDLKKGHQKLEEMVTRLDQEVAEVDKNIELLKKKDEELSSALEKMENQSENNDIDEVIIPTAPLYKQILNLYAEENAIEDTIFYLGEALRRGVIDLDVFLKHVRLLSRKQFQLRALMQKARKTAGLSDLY
UniProt P68366, whole entry, looked up: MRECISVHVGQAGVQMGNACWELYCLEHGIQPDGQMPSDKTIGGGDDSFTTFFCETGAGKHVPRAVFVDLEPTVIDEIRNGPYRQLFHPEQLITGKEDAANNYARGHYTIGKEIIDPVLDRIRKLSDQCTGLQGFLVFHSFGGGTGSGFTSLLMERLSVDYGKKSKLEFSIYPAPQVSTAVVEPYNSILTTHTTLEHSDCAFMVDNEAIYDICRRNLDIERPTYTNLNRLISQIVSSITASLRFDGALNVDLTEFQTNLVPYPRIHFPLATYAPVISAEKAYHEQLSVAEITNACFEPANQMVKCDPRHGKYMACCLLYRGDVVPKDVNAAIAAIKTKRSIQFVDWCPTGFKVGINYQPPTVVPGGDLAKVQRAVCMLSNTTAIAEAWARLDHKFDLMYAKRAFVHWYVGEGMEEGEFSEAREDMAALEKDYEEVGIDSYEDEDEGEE

Key:
Assay in all cases: log2 fold change, soluble protein after heating vs DMSO (PISA); higher = thermal stabilisation; K562 cells, 10 uM, 30 min; active = over 0.2 and 3.5 SD of the protein, either way, in both replicates (recomputed)
saracatinib = compound: CN1CCN(CCOc2cc(OC3CCOCC3)c3c(Nc4c(Cl)ccc5c4OCO5)ncnc3c2)CC1 [saracatinib]
Method in brief: (§1)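 For each measurement, 10 μM compound was applied for 30 min to K562 cells at 2×10^6 cells/mL. Aliquots were heated for 3 min across 48°C-58°C, pooled, and extracted in PBS with 0.5% NP-40 at 4°C; the supernatant after 21,000xg for 90 min was soluble protein. This was quantified by TMTpro 16plex LC-MS/MS with channel sums equalised, and thermal stability was reported relative to control samples from duplicates, on a log2 fold-change scale.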

sotrastaurin = compound: CN1CCN(c2nc(C3=C(c4c[nH]c5ccccc45)C(=O)NC3=O)c3ccccc3n2)CC1 [sotrastaurin]
Method in brief: as §1

alvocidib = compound: CN1CC[C@H](c2c(O)cc(O)c3c(=O)cc(-c4ccccc4Cl)oc23)[C@H](O)C1 [alvocidib]
Method in brief: as §1

Tubastatin A = compound: CN1CCc2c(c3ccccc3n2Cc2ccc(C(=O)NO)cc2)C1 [Tubastatin A]
Method in brief: as §1

[1] = compound: CNC(=O)C1=CC=CC=C1NC2=NC(=NC=C2Cl)NC3=C(C=C(C=C3)N4CCOCC4)OC
Method in brief: as §1

defactinib = compound: CNC(=O)c1ccc(Nc2ncc(C(F)(F)F)c(NCc3nccnc3N(C)S(C)(=O)=O)n2)cc1 [defactinib]
Method in brief: as §1

rucaparib = compound: CNCc1ccc(-c2[nH]c3cc(F)cc4c3c2CCNC4=O)cc1 [rucaparib]
Method in brief: as §1

[2] = compound: CNc1nc(-c2ccc3c(N)n[nH]c3c2)cc(N2C[C@@H](C(=O)NC3CCCCC3)CC[C@H]2C)n1
Method in brief: as §1

encorafenib = compound: COC(=O)N[C@@H](C)CNc1nccc(-c2cn(C(C)C)nc2-c2cc(Cl)cc(NS(C)(=O)=O)c2F)n1 [encorafenib]
Method in brief: as §1

[3] = compound: COC(=O)[C@H](CCSC)NC(=O)C1=C(C=C(C=C1)NC[C@H](CS)N)C2=CC=CC=C2
Method in brief: as §1

Measured: log2 fold change

TTLL12 (UniProt Q14166)
inactive: saracatinib -0.131 | sotrastaurin -0.21 | alvocidib 0.115 | Tubastatin A 0.073 | [1] -0.025 | defactinib 0.034 | rucaparib 0.571 | [2] 0.019 | encorafenib 0.292 | [3] -0.057

UBE2I (UniProt P63279)
inactive: saracatinib 0 | sotrastaurin 0.017 | alvocidib -0.086 | Tubastatin A -0.044 | [1] -0.021 | defactinib 0.006 | rucaparib 0.019 | [2] 0.029 | encorafenib -0.014 | [3] -0.017

TUBB4A (UniProt P04350)
inactive: saracatinib 0.13 | sotrastaurin 0.019 | alvocidib -0.077 | Tubastatin A 0.03 | [1] -0.003 | defactinib -0.084 | rucaparib -0.071 | [2] -0.002 | encorafenib -0.074 | [3] 0.096

UBE2O (UniProt Q9C0C9)
inactive: saracatinib -0.041 | sotrastaurin -0.026 | alvocidib -0.044 | Tubastatin A 0.076 | [1] -0.093 | defactinib -0.049 | rucaparib 0.053 | [2] 0.041 | encorafenib -0.011 | [3] -0.02

TSSC4 (UniProt Q9Y5U2)
inactive: saracatinib -0.091 | sotrastaurin 0.042 | alvocidib 0.066 | Tubastatin A -0.056 | [1] 0.062 | defactinib 0.111 | rucaparib 0.021 | [2] 0.084 | encorafenib -0.124 | [3] 0.088

UBE2T (UniProt Q9NPD8)
inactive: saracatinib -0.032 | sotrastaurin -0.045 | alvocidib -0.06 | Tubastatin A 0.138 | [1] -0.005 | defactinib -0.035 | rucaparib -0.049 | [2] 0.004 | encorafenib -0.027 | [3] -0.015

TTC17 (UniProt Q96AE7)
inactive: saracatinib -0.009 | sotrastaurin 0.078 | alvocidib 0.003 | Tubastatin A -0.012 | [1] 0.083 | defactinib 0.005 | rucaparib -0.068 | [2] -0.036 | encorafenib 0.074 | [3] 0.003

UBE2H (UniProt P62256)
inactive: saracatinib 0 | sotrastaurin -0.012 | alvocidib -0.028 | Tubastatin A -0.022 | [1] 0.031 | defactinib -0.04 | rucaparib -0.025 | [2] -0.086 | encorafenib 0.034 | [3] -0.001

UBE3A (UniProt Q05086)
inactive: saracatinib 0.022 | sotrastaurin 0.009 | alvocidib -0.029 | Tubastatin A 0.035 | [1] -0.027 | defactinib -0.026 | rucaparib -0.016 | [2] -0.014 | encorafenib -0.01 | [3] 0.015

UBE2R2 (UniProt Q712K3)
inactive: saracatinib -0.005 | sotrastaurin -0.029 | alvocidib -0.086 | Tubastatin A -0.01 | [1] 0.014 | defactinib -0.027 | rucaparib -0.025 | [2] -0.008 | encorafenib 0.008 | [3] -0.021

TTF2 (UniProt Q9UNY4)
inactive: saracatinib 0.047 | sotrastaurin 0.044 | alvocidib 0.2 | Tubastatin A -0.05 | [1] 0.056 | defactinib 0.007 | rucaparib 0.332 | [2] 0.212 | encorafenib 0.235 | [3] -0.175

UBC (UniProt P0CG48)
inactive: saracatinib -0.106 | sotrastaurin 0.042 | Tubastatin A 0.252 | [1] 0.002 | defactinib 0.031 | rucaparib 0.053 | [2] 0.017 | encorafenib -0.124 | [3] 0.005

TXNDC5 (UniProt Q8NBS9)
inactive: saracatinib 0.007 | sotrastaurin 0.003 | alvocidib -0.006 | Tubastatin A -0.003 | [1] 0.014 | defactinib -0.014 | rucaparib -0.022 | [2] -0.034 | encorafenib 0.011 | [3] 0.003

TTC12 isoform 2 (UniProt Q9H892)
inactive: saracatinib -0.354 | sotrastaurin 0.14 | alvocidib 0.206 | Tubastatin A -0.03 | [1] 0.006 | rucaparib 0.13 | [2] 0.013 | encorafenib 0.102

TUBGCP3 (UniProt Q96CW5)
inactive: saracatinib -0.13 | sotrastaurin -0.072 | alvocidib 0.04 | Tubastatin A 0.109 | [1] -0.192 | defactinib 0.006 | [2] 0.097 | [3] -0.058

TST (UniProt Q16762)
inactive: saracatinib -0.02 | sotrastaurin 0.096 | alvocidib -0.091 | [1] 0.029 | defactinib -0.16 | rucaparib 0.33 | [2] 0.002 | encorafenib -0.002 | [3] -0.051

UBE2NL (UniProt Q5JXB2)
inactive: saracatinib -0.018 | sotrastaurin -0.073 | alvocidib -0.037 | Tubastatin A 0 | [1] -0.008 | defactinib -0.006 | rucaparib -0.066 | [2] 0.026 | encorafenib 0.007 | [3] -0.046

TYMS (UniProt P04818)
inactive: saracatinib 0.015 | sotrastaurin 0 | alvocidib -0.038 | Tubastatin A 0.079 | [1] -0.014 | defactinib -0.13 | rucaparib 0.087 | [2] -0.031 | encorafenib -0.005 | [3] -0.134

UBE2G1 (UniProt P62253)
inactive: saracatinib 0.002 | sotrastaurin 0.002 | alvocidib -0.094 | Tubastatin A -0.074 | [1] 0.029 | defactinib -0.045 | rucaparib -0.037 | [2] -0.01 | encorafenib 0.023 | [3] 0.061

TWISTNB (UniProt Q3B726)
inactive: saracatinib -0.08 | sotrastaurin -0.134 | alvocidib 0.006 | Tubastatin A 0.182 | [1] -0.045 | defactinib -0.105 | [2] -0.107 | [3] 0.001

UBE2J1 (UniProt Q9Y385)
inactive: saracatinib 0.019 | sotrastaurin -0.016 | Tubastatin A 0.26 | [1] -0.046 | defactinib -0.133 | rucaparib 0.048 | [2] 0.204 | encorafenib 0.001 | [3] 0.035

TYW1 (UniProt Q9NV66)
inactive: saracatinib 0.089 | sotrastaurin -0.059 | Tubastatin A -0.033 | [1] 0.031 | defactinib -0.055 | rucaparib 0.052 | [2] -0.061 | encorafenib 0.028 | [3] -0.059

UBA1 (UniProt P22314)
inactive: saracatinib -0.048 | sotrastaurin -0.17 | Tubastatin A -0.052 | [1] 0.015 | defactinib -0.058 | rucaparib -0.019 | [2] 0.055 | encorafenib 0.149 | [3] -0.057

UBE2Q1 (UniProt Q7Z7E8)
inactive: saracatinib -0.023 | sotrastaurin -0.001 | Tubastatin A 0.027 | [1] 0.05 | defactinib -0.143 | rucaparib -0.008 | [2] 0.048 | encorafenib 0.04 | [3] -0.017

TXN2 (UniProt Q99757)
inactive: saracatinib 0.004 | sotrastaurin 0.04 | Tubastatin A 0.004 | [1] 0.17 | defactinib 0.031 | rucaparib -0.003 | [2] -0.034 | encorafenib 0.001 | [3] 0.068

TSG101 (UniProt Q99816)
inactive: saracatinib -0.008 | sotrastaurin -0.047 | Tubastatin A 0 | [1] 0.011 | defactinib -0.12 | rucaparib -0.006 | [2] -0.044 | encorafenib -0.007 | [3] -0.032

UBA6
inactive: saracatinib -0.006 | sotrastaurin -0.125 | Tubastatin A -0.047 | [1] 0.041 | defactinib -0.089 | rucaparib 0.024 | [2] 0.011 | encorafenib 0.049 | [3] -0.032

Reprinted from above (two entries):
TXN2 (UniProt Q99757)
inactive: saracatinib 0.004 | sotrastaurin 0.04 | Tubastatin A 0.004 | [1] 0.17 | defactinib 0.031 | rucaparib -0.003 | [2] -0.034 | encorafenib 0.001 | [3] 0.068

TSG101 (UniProt Q99816)
inactive: saracatinib -0.008 | sotrastaurin -0.047 | Tubastatin A 0 | [1] 0.011 | defactinib -0.12 | rucaparib -0.006 | [2] -0.044 | encorafenib -0.007 | [3] -0.032

Next part.

TUBA4A (UniProt P68366)
inactive: saracatinib 0.045 | sotrastaurin -0.012 | Tubastatin A -0.051 | [1] -0.039 | defactinib -0.024 | rucaparib -0.046 | [2] 0.038 | encorafenib -0.012 | [3] 0.013

TUT4 (UniProt Q5TAX3)
inactive: saracatinib -0.089 | sotrastaurin 0.003 | Tubastatin A 0.073 | [1] -0.075 | defactinib -0.095 | rucaparib -0.001 | [2] -0.008 | encorafenib -0.144 | [3] 0.082

TUBAL3 (UniProt A6NHL2)
inactive: saracatinib -0.074 | sotrastaurin -0.054 | Tubastatin A -0.003 | [1] -0.125 | defactinib -0.069 | [2] 0.067 | encorafenib 0.187 | [3] -0.057
active: rucaparib -0.51

TXNRD1 (UniProt Q16881)
inactive: saracatinib -0.012 | sotrastaurin 0.058 | Tubastatin A -0.001 | [1] 0.022 | defactinib -0.015 | rucaparib -0.113 | [2] 0.032 | encorafenib -0.033 | [3] -0.001

TTI2 (UniProt Q6NXR4)
inactive: saracatinib -0.028 | sotrastaurin -0.187 | Tubastatin A -0.02 | [1] 0.051 | defactinib -0.073 | rucaparib 0.119 | [2] -0.036 | encorafenib 0.037 | [3] -0.038
